Reference: article PMC7414107
No constants are given. Whether binding was seen depends on the method and setting. Binding seen in cells or lysates may run through a third protein. Some binding calls cover weakened binding; strength is not graded here.

The chains behind the UniProt entries cited, without tags or fusion partners.
UniProt Q80VP1: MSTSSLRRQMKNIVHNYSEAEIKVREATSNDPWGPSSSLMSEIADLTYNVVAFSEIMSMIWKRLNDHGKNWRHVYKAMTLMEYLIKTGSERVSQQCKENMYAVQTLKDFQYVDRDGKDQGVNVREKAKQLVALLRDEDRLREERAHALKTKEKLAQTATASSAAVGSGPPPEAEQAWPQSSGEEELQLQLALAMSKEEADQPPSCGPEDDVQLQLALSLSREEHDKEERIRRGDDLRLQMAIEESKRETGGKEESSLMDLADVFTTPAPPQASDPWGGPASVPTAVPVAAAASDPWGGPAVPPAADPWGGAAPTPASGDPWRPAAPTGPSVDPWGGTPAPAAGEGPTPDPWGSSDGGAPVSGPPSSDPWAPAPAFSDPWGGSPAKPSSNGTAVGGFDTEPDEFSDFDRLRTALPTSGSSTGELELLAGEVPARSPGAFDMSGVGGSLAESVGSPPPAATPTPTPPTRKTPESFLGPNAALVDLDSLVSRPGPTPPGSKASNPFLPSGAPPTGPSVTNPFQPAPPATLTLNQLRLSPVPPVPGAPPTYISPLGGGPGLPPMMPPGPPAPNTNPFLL

B1: erlin 2 (protein, UniProt Q8BFZ9 1-340)
chain: MAQLGAVVAVASSFFCASLFSAVHKIEEGHIGVYYRGGALLTSTSGPGFHLMLPFITSYKSVQTTLQTDEVKNVPCGTSGGVMIYFDRIEVVNFLVPNAVYDIVKNYTADYDKALIFNKIHHELNQFCSVHTLQEVYIELFDQIDENLKLALQQDLTSMAPGLVIQAVRVTKPNIPEAIRRNYELMESEKTKLLIAAQKQKVVEKEAETERKKALIEAEKVAQVAEITYGQKVMEKETEKKISEIEDAAFLAREKAKADAECYTALKIAEANKLKLTPEYLQLMKYKAIASNSKIYFGKDIPNMFMDSAGGLGKQFEGLSDDKLGFGLEDEPLEAPTKEN
B2: erlin 1 (protein, UniProt Q91X78 1-348)
chain: MNMTQARLLVAAVVGLVAILLYASIHKIEEGHLAVYYRGGALLTSPSGPGYHIMLPFITTFRSVQTTLQTDEVKNVPCGTSGGVMIYIDRIEVVNMLAPYAVFDIVRNYTADYDKTLIFNKIHHELNQFCSAHTLQEVYIELFDQIDENLKQALQKDLNTMAPGLTIQAVRVTKPKIPEAIRRNFELMEAEKTKLLIAAQKQKVVEKEAETERKRAVIEAEKIAQVAKIRFQQKVMEKETEKRISEIEDAAFLAREKAKADAEYYAAHKYATSNKHKLTPEYLELKKYQAIASNSKIYFGSNIPSMFVDSSCALKYSDGRTGREDSLPPEEAREPSGESPIQNKENAG
B3: E3 ubiquitin-protein ligase Ring Finger Protein 170 (RNF170) (enzyme, UniProt Q8CBG9 1-286)
chain: MQRYWRFQDNKIQDICFGVLGESWIQRPVMARYYSEGQSLQQDDSFIEGVSDQVLVAVVVSLALTATLLYALLRNVQQNIHPENQELVRVLREQFQTEQDVPAPARQQFYTEMYCPICLHQASFPVETNCGHLFCGSCIIAYWRYGSWLGAISCPICRQTVTLLLTVFGEDDQSQDVIRLRQDVNDYNRRFSGQPRSIMERIMDLPTLLRHAFREVFSVGGLFWMFRIRIMLCLMGAFFYLISPLDFVPEALFGILGFLDDFFVIFLLLIYISIMYREVITQRLTR

Each binder was assayed against epsin 1 (mouse (endogenous in MAECs)) (UniProt Q80VP1) (assay: co-IP; endogenous proteins in MAEC lysates; IP with the epsin 1 antibody or the IP3R1 antibody, western blot; cells treated with 100 µg/mL oxLDL, 500 µg/mL cholesterol crystal or 50 µM 7-KC for 30 min (Fig. 1c-f), lysates with or without 10 µM USP2 (Fig. 3g), or oxLDL 4 h with 10 µM MG132 (Fig. 3m)).

binding, binds:
B1
B2
B3
